Measured values: US20210363217A1
These are yes or no findings as the source states them, for the method shown. Some entries that bind do so weakly or less than the wild type.

B1: Cs1 FN3 based monobody (designed binder)
chain: SSVPTKLEVVAATPTSLLISWDAPAVTVDYYVITYGETGYWPYYWQEFEVPGSKSTATISGLKPGVDYTITVYAGSYDSYYYYGSPISINYRT
B2: Cs3 FN3 based monobody (designed binder)
chain: SSVPTKLEVVAATPTSLLISWDAPAVTVDYYVITYGETGHWPWVWQEFEVPGSKSTATISGLKPGVDYTITVYAGSYSSYYYYGSPISINYRT
B3: Cs4 FN3 based monobody (designed binder)
chain: SSVPTKLEVVAATPTSLLISWDAPAVTVDYYVITYGETGYWPYYWQEFEVPGSKSTATISGLKPGVDYTITVYAGHYNSYYYSYSPISINYRT
B4: Nsa1 FN3 based monobody (designed binder)
chain: SSVPTKLEVVAATPTSLLISWDAPAVTVDYYVITYGETGSGGYAWQEFEVPGSKSTATISGLKPGVDYTITVYAGYYGYPTYYSSPISINYRT
B5: Nsa2 FN3 based monobody (designed binder)
chain: SSVPTKLEVVAATPTSLLISWDAPAVTVDYYVITYGETGYYAYFQEFEVPGSKSTATISGLKPGVDYTITVYAGYYGYYGSPISINYRT
B6: Nsa4 FN3 based monobody (designed binder)
chain: SSVPTKLEVVAATPTSLLISWDAPAVTVDYYVITYGETGYYAYFQEFEVPGSKSTATISGLKPGVDYTITVYAGYYGYYGNPISINYRT
B7: Nsa5 FN3 based monobody (designed binder)
chain: SSVPTKLEVVAATPTSLLISWDAPAVTVDFYVITYGETGYFSGFQEFEVPGSKSTATISGLKPGVDYTITVYAGYYGYYGSPISINYRT

substrate: T1, C terminal SH2 domain of SHP2 (Mus musculus (Mouse)) (UniProt P35235); assay: ELISA
T1 sequence: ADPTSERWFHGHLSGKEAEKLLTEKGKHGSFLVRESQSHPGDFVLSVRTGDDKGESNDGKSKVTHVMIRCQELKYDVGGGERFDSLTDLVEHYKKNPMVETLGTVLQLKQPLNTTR

binding, binds:
B1
B2
B3

substrate: T2, N terminal SH2 domain of SHP2 (Mus musculus (Mouse)) (UniProt P35235); assay: ELISA
T2 sequence: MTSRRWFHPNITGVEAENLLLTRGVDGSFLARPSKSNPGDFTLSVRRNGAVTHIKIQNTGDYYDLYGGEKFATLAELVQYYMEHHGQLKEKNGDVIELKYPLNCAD

binding, binds:
B4
B5
B6
B7
